According to US8080524B2, “Agent for slowing hair loss and/or stimulating hair growth” (Centre National de la Recherche Scientifique (CNRS), priority 2005, dated 2011):
At least one compound was matched to its structure with a doubt left.

Legend:
[1] = test system: type IV collagen; assay: Immunolabelling of type IV collagen on frozen hair cuts; format: cell-based, human; conditions: Minoxidil 10^−5 M, D8 and D15, relative to AcSDKP
Experimental: (§1) Study of the stimulating activity of tetrapeptide AcSDKP on the growth of isolated hairs maintained in a state of ex vivo survival. This study was conducted on 66 human hair explants obtained from scalp-plasty.
(§2) Hairs comprised of hair follicles were isolated by micro dissection and individually placed in wells (96-well culture plate) and maintained in survival for 15 days under conventional tissue culturing conditions (37° C., 5% CO2) in Williams medium.
(§3) Tetrapeptide AcSDKP added to the culture medium was tested at three concentrations: 10^−4 M, 10^−7 M and 10^−10 M. Minoxidil (2/1 diamino 6-piperidinopyrimidine 3-oxide) at a concentration of 10^−5 M was used as a positive control.
On D8 and D15 of treatment, six hairs from each batch (untreated control, Minoxidil, +AcSDKP 10^−4 M, +AcSDKP 10^−7 M, +AcSDKP 10^−10 M) were removed and prepared for histological study. […]
In addition to measurements of the length of each hair, the general morphology of each hair was analysed and the expression of laminin 5 and collagen IV, two constituents of the basal membrane, was evaluated. […]
Immunolabelling of type IV collagen was carried out on frozen cuts of the control hairs and hairs treated with AcSDKP or Minoxidil in order to quantify this constituent of the basal membrane which separates the dermal compartment from the epithelial compartment.

[2] = test system: epithelial sheaths of human hair explants; assay: General morphology of hair histological cuts stained with Masson Trichromium (neo-keratinocytes); format: cell-based
Experimental: as §1, §2, §3
On D8 and D15 of treatment, six hairs from each batch (untreated control, Minoxidil, +AcSDKP 10^−4 M, +AcSDKP 10^−7 M, +AcSDKP 10^−10 M) were removed and prepared for histological study.
Three explants from each batch were fixed in ordinary Bouin and the three other hairs were frozen and stored at −80° C.
Analysis of the general morphology of histological cuts stained with Masson Trichromium focusing on the area between the opening of the sebaceous glands and the hair bulb.
Hairs cultured on D0 naturally undergo changes during survival as is observed after an in vivo graft. The restructuring effect of AcSDKP was visualised through the appearance of neo-keratinocytes along the conjunctival sheath which migrate from the bulge and to a lesser extent from the bulb, two regions where stem cells are found. […] This effect leads to clear appearance of neo-keratinocytes along the length of the hair, from the epidermis to the bulb. The structure of the neo-keratinocytes formed in this way is uniform and stratified. It varies as a function of treatment time and AcSDKP concentration. The clearest activity was found on D15 of treatment with AcSDKP at 10^−10 M.

**Q.** For Nc1cc(N2CCCCC2)nc(N)[n+]1[O-] [Minoxidil, 2/1 diamino 6-piperidinopyrimidine 3-oxide, reference compound], which “expression of collagen IV” value [1] is on record?
**A.** Its value is “often less evident”.

**Q.** What about the neo-keratinocyte sites ([2]; 10 μM, D8) of the same compound?
**A.** Its neo-keratinocyte sites is “absent”.

**Q.** What about the “neo-keratinocyte structure compared to untreated hair” value ([2]; 10^−5 M, D15) of the same compound?
**A.** The value was “slightly more structured”.

**Q.** What about the “adhesion of epithelial sheaths to collagen” value ([2]; Minoxidil 10 μM, D8) of the same compound?
**A.** Its value is “more or less detached”.
